Consider one compound from patent US20100273189A1, “NON SEPARATION ASSAYS WITH SELECTIVE SIGNAL INHIBITORS” (BECKMAN COULTER, INC., priority 2009, published 2010).

The test system of this data set is PSA. Description: Heterogeneous PSA immunoassay on silica particles with Et2NOH as SSIA. Type of data set: biochemical. To be noted: for RLU: second column pair (head prints w/o Et2NOH, taken as with Et2NOH), average of duplicates; for S/S0: second column pair (taken as with Et2NOH).

As for `CCN(O)CC` [Et2NOH], the RLU is 6694 RLU (PSA calibrator S0), 446120 RLU (PSA calibrator S1) and 43144054 RLU (PSA calibrator S5). The S/S0 (PSA calibrator S1) is given as 66.6 and the S/S0 (PSA calibrator S5) came to 6445.
